The list shows a part of the results. Single wells; the ratio to wells without odorant was worked out here, and repeats agree poorly.

Some test systems named below: OR51A2 clone 1577; OR51B2 clone 1551; OR51B5 clone 1553; OR51B6 clone 1554; OR51D1 clone 1206; OR51E1 S11N clone 1532; OR51E1 clone 1129; OR51E2 clone 1205; OR51F2 clone 1330; OR51G1 clone 1165; OR51G2 clone 1199; OR51H1 clone 1187; OR51I1 clone 1555; OR51I2 clone 1133; OR51J1 R75H clone 1698; OR51L1 I281M clone 1535; OR51L1 clone 1183.
Common to all, as to assay: odorant receptor activation (CRE luciferase / Renilla) (fold of no-odor wells); higher = more activation
What all share (conditions): 100 µM

The subject of assay [1] is OR51A4 G45C/L227P/R267G clone 1166.
In assay [2] the test system is OR51B4 V36I/M147T clone 1552.
The subject of assay [3] is OR51L1 T196I/A207V clone 1533.

As for `CCCCO` [1-butanol], the odorant receptor activation came to 0.842 in the assay with OR51A2 clone 1577; 0.994 in [1]; 0.822 with OR51B2 clone 1551; 0.803 in assay [2]; 0.699 in the assay with OR51B5 clone 1553; 1.01 with OR51B6 clone 1554. The odorant receptor activation was 1.1 with OR51D1 clone 1206; 1.14 in the assay with OR51E1 S11N clone 1532; 1.38 with OR51E1 clone 1129; 0.867 in the assay with OR51E2 clone 1205; 0.924 in the assay on OR51F2 clone 1330; 1.47 with OR51G1 clone 1165. Further, the odorant receptor activation came out at 1.45 in the assay on OR51G2 clone 1199; 1 in the assay with OR51H1 clone 1187; 0.829 with OR51I1 clone 1555; 0.925 in the assay on OR51I2 clone 1133; 0.776 in the assay with OR51J1 R75H clone 1698; 1.38 in the assay on OR51L1 I281M clone 1535. For the same compound, the results for the odorant receptor activation (in assay [3]; with OR51L1 clone 1183) were 1.2 and 0.932, respectively.
Regarding `CC/C=C\CCO` [cis-3-hexen-1-ol], the odorant receptor activation with OR51A2 clone 1577 was 1.04; in assay [1], 1.09; in the assay with OR51B2 clone 1551, 1.15; in [2] it was 1.43; in the assay with OR51B5 clone 1553, 1.04; with OR51B6 clone 1554, 1.17. Moreover, the odorant receptor activation in the assay on OR51D1 clone 1206 worked out at 1.2; with OR51E1 S11N clone 1532, 0.826; in the assay with OR51E1 clone 1129, 1.1; in the assay on OR51E2 clone 1205 it was 1.26; in the assay on OR51F2 clone 1330 it was 0.941; in the assay on OR51G1 clone 1165, 0.998. Besides, the odorant receptor activation in the assay with OR51G2 clone 1199 worked out at 0.866; in the assay with OR51H1 clone 1187, 1.05; in the assay on OR51I1 clone 1555, 1; with OR51I2 clone 1133 it was 1.19; in the assay on OR51J1 R75H clone 1698, 1.02; with OR51L1 I281M clone 1535, 0.941. Moreover, the odorant receptor activation in assay [3] stood at 0.903; in the assay with OR51L1 clone 1183, 0.959.
With `CC1CCC(C(C)C)C(O)C1` (single isomer, unassigned; (+)) [(+)-menthol], the odorant receptor activation with OR51A2 clone 1577 turned out to be 0.88; in assay [1], 1.29; in the assay on OR51B2 clone 1551, 0.715; in [2], 0.705; in the assay on OR51B5 clone 1553, 0.807; in the assay on OR51B6 clone 1554, 0.978. The odorant receptor activation was found to be 0.919 in the assay with OR51D1 clone 1206; 1.14 in the assay with OR51E1 S11N clone 1532; 1.55 in the assay on OR51E1 clone 1129; 1.14 in the assay with OR51E2 clone 1205; 0.748 in the assay on OR51F2 clone 1330; 1.83 with OR51G1 clone 1165. Moreover, the odorant receptor activation with OR51G2 clone 1199 is 1.27; in the assay with OR51H1 clone 1187, 1.13; in the assay with OR51I1 clone 1555, 1.13; with OR51I2 clone 1133, 1.31; in the assay with OR51J1 R75H clone 1698, 0.744; in the assay on OR51L1 I281M clone 1535, 1.22. The values for the odorant receptor activation (in [3]; in the assay on OR51L1 clone 1183) were 1.2 and 1.61, respectively.
For `CC1CCC(C(C)C)C(O)C1` (single isomer, unassigned; (-)) [(-)-menthol], the odorant receptor activation with OR51A2 clone 1577 worked out at 1.03; in assay [1], 1.14; in the assay on OR51B2 clone 1551, 0.867; in assay [2], 0.989; in the assay on OR51B5 clone 1553, 1.24; with OR51B6 clone 1554 it was 1.01. The odorant receptor activation is 1.32 with OR51D1 clone 1206; 0.758 in the assay with OR51E1 S11N clone 1532; 1.15 in the assay on OR51E1 clone 1129; 0.903 with OR51E2 clone 1205; 0.851 in the assay with OR51F2 clone 1330; 1.07 in the assay with OR51G1 clone 1165. The odorant receptor activation in the assay with OR51G2 clone 1199 is 1.18; in the assay with OR51H1 clone 1187, 1.12; in the assay with OR51I1 clone 1555, 1.01; in the assay with OR51I2 clone 1133, 1.23; in the assay with OR51J1 R75H clone 1698 it was 0.726; in the assay on OR51L1 I281M clone 1535, 3.45. In addition, the odorant receptor activation is 2.03 in assay [3] and 1.05 with OR51L1 clone 1183.
Turning to `CC12CCC(C1)C(C)(C)C2=O` (stereo not given) [fenchone], the odorant receptor activation with OR51A2 clone 1577 is 0.693; in assay [1] it was 0.939; in the assay with OR51B2 clone 1551 it was 0.802; in [2] it was 0.878; in the assay on OR51B5 clone 1553 it was 0.891; in the assay on OR51B6 clone 1554 it was 0.7. The odorant receptor activation in the assay on OR51D1 clone 1206 was 0.857; with OR51E1 S11N clone 1532, 1.14; in the assay on OR51E1 clone 1129 it was 1.07; with OR51E2 clone 1205, 1.02; in the assay with OR51F2 clone 1330, 1.05; in the assay on OR51G1 clone 1165, 0.859. In addition, the odorant receptor activation in the assay with OR51G2 clone 1199 was found to be 1.03; with OR51H1 clone 1187, 0.764; in the assay on OR51I1 clone 1555 it was 0.791; in the assay on OR51I2 clone 1133, 0.74; in the assay on OR51J1 R75H clone 1698 it was 0.649; in the assay on OR51L1 I281M clone 1535, 0.992. Also, the odorant receptor activation in assay [3] is 1.61; with OR51L1 clone 1183, 1.05.
In the case of `COc1cc(C=O)ccc1O` [vanillin], the odorant receptor activation was 0.64 in the assay with OR51A2 clone 1577; 1.26 in [1]; 1.1 in the assay on OR51B2 clone 1551; 1.72 in [2]; 0.463 in the assay with OR51B5 clone 1553; 0.731 in the assay on OR51B6 clone 1554. In addition, the odorant receptor activation with OR51D1 clone 1206 was found to be 1.05; with OR51E1 S11N clone 1532 it was 1.03; in the assay on OR51E1 clone 1129, 1.22; in the assay with OR51E2 clone 1205, 1.19; in the assay on OR51F2 clone 1330, 0.774; with OR51G1 clone 1165 it was 1.01. In addition, the odorant receptor activation amounted to 0.968 in the assay with OR51G2 clone 1199; 0.996 in the assay with OR51H1 clone 1187; 0.87 in the assay on OR51I1 clone 1555; 0.979 in the assay on OR51I2 clone 1133; 0.565 in the assay with OR51J1 R75H clone 1698; 0.915 in the assay with OR51L1 I281M clone 1535. Besides, the results for the odorant receptor activation (in [3]; in the assay on OR51L1 clone 1183) were 0.91 and 1.19, respectively.

(Values after the odorant receptor screen of Mainland et al. (2015).)
